# The other results are listed elsewhere or left out.
# Test system: T1, CTL2-GFP (C. trachomatis L2/434/Bu, GFP-expressing)
# T1 construct: L2/434/Bu, GFP-expressing
# Set-up: species or system HeLa; Intracellular C. trachomatis growth in HeLa cells, bulk GFP fluorescence relative to DMSO
# Settings: bulk GFP, single well; 28.5 h, 10 µM; inhibitor
row,Compound,% of control remaining [%]
1,CCCc1nnc([C@H]2CCN(Cc3ccc(S(C)(=O)=O)cc3)C2)o1 [CBK289402],102.004
2,COC(=O)CNC(=O)c1ccc(S(=O)(=O)N2CCCC2)cc1 [CBK264880],100
3,CC1=C[C@@H](CO)[C@H](C(C)C)C[C@H]1Cc1nnc(-c2ccc(N(C)C)cc2)o1 [CBK289224],87.4533
4,CN(C)c1cccc(-c2cc(NC3CCCCC3)ncn2)c1 [CBK090900],147.241
5,O=C(O)CCC(=O)N1CCN(C2CCCCC2)CC1 [CBK286918],89.8755
6,Cc1cc(C)nc(SCc2nc(N)nc(-c3ccccc3O)n2)n1 [CBK266725],165.286
7,Cc1cccn2c(=O)c(/C=C3\SC(=S)NC3=O)c(NCCCN3CCOCC3)nc12 [CBK264904],100
8,c1ccc(-c2csc3ncnc(-n4cnc5ccccc54)c23)cc1 [CBK264494],99.7565
9,Nc1nnc(Sc2nccc(C(F)(F)F)n2)s1 [CBK020023],106.801
10,Cc1ccc(C(=O)NC(=S)Nc2ccc(C(=O)O)c(Cl)c2)cc1Cl [CBK265068],108.328
11,COC(=O)CCc1ccc(S(=O)(=O)N2CCCN(Cc3c[nH]c(=O)[nH]c3=O)CC2)cc1 [CBK063082],77.4726
12,N#Cc1ccc(CN2CCCCC2c2[nH]ncc2C(N)=O)c(Cl)c1 (stereo not drawn) [CBK304261],111.014
13,Cc1cccc(CN2CCC(NC(=O)c3cn(C(C)(C)C)nn3)CC2)c1 [CBK305927],101.182
14,C=CCn1c(-c2sc(NC(=O)CNC(=O)C(C)(C)C)nc2C)n[nH]c1=S [CBK297907],108.538
15,Cc1cc(CNC(=O)C2CC(=O)N(Cc3ccccn3)C2)ccc1F (stereo not drawn) [CBK305557],169.277
16,Nc1n[nH]c(=O)c2c1ncn2[C@H]1C[C@@H](O)[C@@H](CO)O1 [CBK201169],162.834
17,CCCCOc1ccc(C(=O)N(C)c2ccc(CCC)cc2)cc1 [CBK161619],73.3907
18,Cc1nn(C)c(C)c1CC(=O)N1CCc2c(sc3ncnc(N)c23)C1 [CBK306065],109.558
19,CC(C)c1ccc(S(=O)(=O)N(CCC#N)Cc2ccccc2)cc1 [CBK043565],106.553
20,O=C1NCCCC12CCN(Cc1cccc3cccnc13)CC2 [CBK284826],157.433
21,Cc1nc2c(c(=O)n1C)CN(Cc1cc(=O)n3cccc(O)c3n1)C2 [CBK306991],138.174
22,COc1ccccc1C(NC(=O)C1CCN(C(=O)OC(C)C)CC1)c1ccccn1 (stereo not drawn) [CBK059649],106.777
23,CSCCCNC(=O)N(C)C1CCN(C)C1 (stereo not drawn) [CBK155995],108.69
24,Cc1ccc(NC2=N[C@H]3[C@@H](O)[C@H](O)C[C@H](C(=O)N4CCCCC4)[C@H]3S2)cc1 [CBK288951],132.76
25,O=C(O)c1cc(C=Cc2ccc(Cl)c([N+](=O)[O-])c2)nc2ccccc12 [CBK297495],125.106
26,CN1CCC2(CC1)NCCc1c2ccn1S(=O)(=O)c1cccc2c(N(C)C)cccc12 [CBK061633C],80.112

# Molecules listed so far with a COOH group, in the order listed:
row,Compound,% of control remaining [%]
5,O=C(O)CCC(=O)N1CCN(C2CCCCC2)CC1 [CBK286918],89.8755
10,Cc1ccc(C(=O)NC(=S)Nc2ccc(C(=O)O)c(Cl)c2)cc1Cl [CBK265068],108.328
25,O=C(O)c1cc(C=Cc2ccc(Cl)c([N+](=O)[O-])c2)nc2ccccc12 [CBK297495],125.106

# The list goes on:

row,Compound,% of control remaining [%]
1,CCOC(=O)c1ccc(Cn2c(-c3ccccc3)nnc2-c2ccccc2)o1 [CBK267691],105.378
2,O=[N+]([O-])c1ccc(NCCNc2nc3ccccc3nc2N2CCOCC2)cc1 [CBK266342],55.4656
3,COCCCn1c(CCC(=O)O)ccc1-c1ccc(Br)cc1 [CBK268015],121.978
4,Cc1ccccc1-n1ncc2c(=O)n(CC(=O)N3CCCCC3)cnc21 [CBK287688],130.487
5,CCc1ccccc1OCC(=O)Nc1ccc([N+](=O)[O-])cc1OC [CBK265665],100
6,[2H]C(C(=O)NCc1ccc2c(c1)CCC2)n1cc(-c2ccc(CN3CCC(C)CC3)cc2)nn1 (stereo not drawn) [CBK166081-L1],174.729
7,O=C(NCCN1CCOCC1)c1cc(-c2ccccc2)on1 [CBK267479],135.453
8,CN(C)S(=O)(=O)N(CC(=O)N1CCN(Cc2ccc3c(c2)OCO3)CC1)c1ccccc1 [CBK267994],92.1691
9,Cc1cccc(C(=O)N2CCC(N(C)Cc3ccc(-c4ccc(S(C)(=O)=O)cc4)nc3)CC2)n1 [CBK165937T],116.193
10,O=C(c1cccnc1)C1CCN(C(=O)Cc2ccsc2)CC1 [CBK283517],128.529
11,O=C(C1CCOCC1)N1CCCC(c2cc3cccnc3[nH]2)C1 (stereo not drawn) [CBK284941],118.902
12,COC(=O)c1cc(S(N)(=O)=O)c(C)o1 [CBK113185],106.179
13,CCOC(=O)c1c(NC(=O)CSc2nc[nH]n2)sc2c1CCCCC2 [CBK267231],144.837
14,O=C(/C=C/c1ccccc1)Nc1cccc(C(=O)O)c1 [CBK287193],121.064
15,O=C(NCCN1CCOCC1)c1ccc(-c2ccco2)nc1NCc1cccnc1 [CBK076112],104.247
16,CCC(=O)Nc1nonc1-c1nc2ccccc2n1Cc1ccc(F)cc1Cl [CBK269608],176.092
17,Cc1nn(C)c(C)c1CCNC(=O)CC1CCCCN1C (stereo not drawn) [CBK281774],124.687
18,O=C1CCCN1CCCNc1ncnc2c1cnn2-c1ccc(Cl)cc1 [CBK265838],159.378
19,O=C(CSc1nc2ccccc2c(=O)[nH]1)Nc1ccc(Cl)c(C(=O)O)c1 [CBK268246],127.18
20,Cc1ccc(-c2n[nH]c(=S)n2CCC(=O)NC(C)c2ccc3c(c2)CCCC3)cc1 (stereo not drawn) [CBK295666],98.3994
21,COc1ccc(C2CC(c3ccc(Cl)cc3)Nc3ncnn32)c(OC)c1 (stereo not drawn) [CBK287848],135.254
22,Cc1cc(C)c(-c2csc(NS(=O)(=O)c3cccc(C(=O)O)c3)n2)cc1C [CBK296698],125.772
23,CC1CCC(C(N)=O)CN1C(=O)c1cc(Br)c[nH]1 (stereo not drawn) [CBK305769],127.547
24,O=C(Nc1ccc2oc(-c3ccccc3)nc2c1)C1CCCO1 (stereo not drawn) [CBK107724],113.266
25,COCCNC(=O)c1sc2ccccc2c1C1CCN(Cc2ccc3ncccc3c2)C1 (stereo not drawn) [CBK285680],116.469
26,CCOC(=O)c1c(NC(=O)CSc2nc3ccccc3s2)sc2c1CCC2 [CBK263220],127.908

row,Compound,% of control remaining [%]
1,CCc1c(Cc2[nH]c(C)c(C(C)=O)c2C)[nH]c(C(=O)O)c1C [CBK286717],122.741
2,O=C(NC(=S)Nc1ccc2oc(-c3cncc(Br)c3)nc2c1)c1cc([N+](=O)[O-])ccc1N1CCOCC1 [CBK268864],74.9171
3,Cc1ccc(S(=O)(=O)N(CCO)CC(O)Cn2c3ccc(Cl)cc3c3cc(Cl)ccc32)cc1 (stereo not drawn) [CBK263392],64.7632
4,O=C(NC1CCCCC1)c1cc(NC(=O)c2ccccc2C(=O)O)ccc1Cl [CBK287062],120.168
5,O=[N+]([O-])c1ccc2c(c1)nnn2CN1CCCCC1 [CBK261663],118.243
6,CN1N=C(c2ccccc2)CC1=O [CBK067774],107.613
7,COCOc1ccc(-c2ncc(OCCN3CCCC3=O)nc2NC(C)=O)cc1 [CBK145253],130.285
8,Cc1ccc(S(=O)(=O)NC2c3cccc4cccc(c34)C2Sc2nncn2N)cc1 (stereo not drawn) [CBK265873],93.2359
9,C#CCOc1ccc(/C=C2/SC(=S)N(CCC(=O)O)C2=O)cc1 [CBK265667],126.951
10,Cc1cc(Cl)c(OCCn2c3ccccc3c3ccccc32)c(Br)c1 [CBK264826],100
11,NC(=O)CN1CCCc2ccccc21 [CBK138343],109.969
12,O=C(O)CCC(=O)N1N=C(c2ccccc2)CC1c1ccc2nccnc2c1 (stereo not drawn) [CBK266650],116.834
13,O=C(NCc1ccccn1)Nc1ccc2c(c1)OCO2 [CBK267014],166.949
14,CC(C)N1CCC(CNC(=O)c2cc3ccccc3c(=O)s2)CC1 [CBK282711],154.383
15,Cc1sc2ncnc(N3CCCC3Cn3cccn3)c2c1C (stereo not drawn) [CBK304570],96.3955
16,Cc1nc2sccn2c1CN1CCc2sccc2C1C (stereo not drawn) [CBK282807],110.529
17,O=C(Cc1c[nH]c2ccccc12)Nc1ccccc1N1CCNCC1 [CBK028288T],110.47
18,Cc1cccc(NC(=O)[C@@H](NC(=O)c2ccccc2F)C(C)C)c1C [CBK297509],146.11
19,COc1ccccc1CC(=O)N(Cc1cccnc1)C[C@@H]1CCC(=O)N1 [CBK307504],104.903
20,CN1CCN(c2nc(-c3ccco3)cnc2N)CC1 [CBK063449],170.209
21,COC(=O)[C@@H]1CN(C(=O)c2cccs2)C[C@H]1c1ccc(OC)cc1 [CBK283725],124.641
22,Cc1ccc(CC(=O)N2CCc3nn(C(C)C)c(=O)cc3C2)cc1 [CBK284499],123.081
23,Cc1ccc2[nH]c(SCC(=O)Nc3ccc(C(=O)O)cc3)nc2c1 [CBK297526],145.151
24,Cn1c(CNc2ccccc2C(=O)O)c(C#N)c2ccccc21 [CBK286977],138.487
25,CS(=O)(=O)N1CC2(CCN(Cc3ccccc3F)CC2)c2ccccc21 [CBK084004],139.37
26,Cc1ccc2c(c1)C1(CCN(C/C=C\c3ccccc3)CC1)NC(=O)C2 [CBK040216],99.8988
